Measurements from patent US20210116456A1.
Results are given in words; binding and its absence hold for the method and conditions named. Some binding calls cover weakened binding; strength is not graded here.

T1: CDH17 (UniProt Q12864)
T1 sequence (looked up): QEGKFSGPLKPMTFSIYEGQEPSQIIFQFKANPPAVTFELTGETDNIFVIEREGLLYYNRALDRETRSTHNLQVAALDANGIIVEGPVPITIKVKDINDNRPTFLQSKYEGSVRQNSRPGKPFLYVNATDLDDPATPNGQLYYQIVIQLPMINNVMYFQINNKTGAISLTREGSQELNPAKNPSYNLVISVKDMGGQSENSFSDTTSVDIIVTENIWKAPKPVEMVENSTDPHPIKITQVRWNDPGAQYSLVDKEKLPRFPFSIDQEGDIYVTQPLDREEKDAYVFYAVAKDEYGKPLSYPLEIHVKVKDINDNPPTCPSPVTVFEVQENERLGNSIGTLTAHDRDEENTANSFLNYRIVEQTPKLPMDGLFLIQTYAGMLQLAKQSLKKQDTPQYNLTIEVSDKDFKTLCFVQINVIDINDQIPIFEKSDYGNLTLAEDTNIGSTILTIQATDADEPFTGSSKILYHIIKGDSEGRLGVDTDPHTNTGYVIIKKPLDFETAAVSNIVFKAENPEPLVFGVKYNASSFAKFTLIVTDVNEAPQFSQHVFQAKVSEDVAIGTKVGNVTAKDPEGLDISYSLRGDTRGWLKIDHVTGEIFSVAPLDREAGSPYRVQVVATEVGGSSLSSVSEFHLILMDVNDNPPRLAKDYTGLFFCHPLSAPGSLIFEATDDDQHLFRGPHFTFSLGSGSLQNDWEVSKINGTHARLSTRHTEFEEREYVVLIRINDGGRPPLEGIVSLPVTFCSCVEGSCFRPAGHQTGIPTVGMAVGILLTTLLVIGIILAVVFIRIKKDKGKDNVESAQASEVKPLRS

B1: ARB101 (humanized Lic3, CDH17 capturing antibody) (antibody, V domains shown)
VH: QVQLQESGGGLVKPGGSLKLSCAASGFSFSDYYMYWVRQAPEKRLEWVASISFDGTYTYYTDRVKGRFTISRDNAKNNLYLQMSSLKSEDTAMYYCARDRPAWFPYWGQGTLVTVSA
VL: DIVLTQTPLSLTVSLGDQASISCRSSQSIVHSNGNTYLGWYLQRPGQSPKLLIYKVSNRFSGVPDRFSGSGSGTDFTLKISRVEAEDLGVYYCFQGSHVPLTFGAGTKLELKR
B2: ARB102 (humanized 10C12, CDH17 capturing antibody) (antibody, V domains shown)
VH: EVQLVESGGGLVQPGGSLRLSCAASGFTFSSYAMSWVRQTPGKGLEWVAVIDSNGGSTYYPDTVKDRFTISRDNSKNTLYLQMNSLRAEDTAVYYCSSYTNLGAYWGQGTLVTVSA
VL: DIQMTQSPSSLSASVGDRVTITCRASQDISGYLNWLQQKPGGAIKRLIYTTSTLDSGVPKRFSGSGSGTDFTLTISSLQSEDFATYYCLQYASSPFTFGGGTKVEIK
B3: 9C6 (CDH17 antibody, humanized sequences; D6) (antibody, V domains shown)
VH: QVQLVQSGAEVKKPGASVKVSCKVSGYTFTHYWMHWVRQRPGKGLEWMGEIDPFDSYTYYNQKFKGRVTMTVDTSSDTAYMELSSLRSEDTAVYYCARPLPGTGWYFDVWGQGTTVTVSS
VL: EIVLTQSPTTLSLSPGERATLSCSASSSISSTYLHWYQQKPGFPPRLLIYGTSNLASGIPACFSGSGSGTDFTLTISSLEAEDFAVYYCQQGSSLPFTFGQGTKLEIK

Biological target: T1, CDH17
Assay: capture ELISA, antibody immobilized on wells, CDH17 from cancer cell culture media and blood

| Binder | binding |
| --- | --- |
| B1 | binds |
| B2 | binds |
| B3 | binds |
